Tests used:
[1] = tested on: breast adenocarcinoma cell line MCF7; test: Sub-cellular localisation of luminol derivatives, confocal microscopy with mitotracker green FM; assay type: cell-based; settings: MCF7 cells, 4 hours treatment, mitotracker green FM co-stain
[2] = tested on: glioblastoma cell line U87; test: as above; assay type: cell-based; settings: U87 cells, 4 hours treatment, mitotracker green FM co-stain
[3] = Energy transfer between luminol luminescence and photosensitizers
[4] = luminol in aqueous carbonate buffer (pH 10.3) with CuSO4 and urea peroxide

For `O=C(CCCCC[P+](c1ccccc1)(c1ccccc1)c1ccccc1)Nc1cccc2c(=O)[nH][nH]c(=O)c12.[Br-]` [AP47, (6-((1,4-dioxo-1,2,3,4-tetrahydrophthalazin-5-yl)amino)-6-oxohexyl)triphenylphosphonium bromide], the subcellular localisation [1] was “mitochondrial localisation” and the subcellular localisation [2] was “mitochondrial localisation”.
In the case of `O=c1[nH][nH]c(=O)c2c(NCCCCCC[P+](C3CCCCC3)(C3CCCCC3)C3CCCCC3)cccc12.[I-]` [DZ160, tricyclohexyl(6-((1,4-dioxo-1,2,3,4-tetrahydrophthalazin-5-yl)amino)hexyl)phosphonium iodide], the subcellular localisation [1] is reported as “mitochondrial localisation” and the subcellular localisation [2] is reported as “mitochondrial localisation”.
With `O=C1OC2(c3cc(I)c(O)c(I)c3Oc3c2cc(I)c(O)c3I)c2c(Cl)c(Cl)c(Cl)c(Cl)c21` [RB, Rose Bengal] the “photosensitizer fluorescence excited by luminol luminescence” value (from here on “photosensitizer fluorescence excited”) [3, 4] was “characteristic fluorescence of RB is obvious”.
For `O=S(=O)(O)c1ccc(-c2c3nc(c(-c4ccc(S(=O)(=O)O)cc4)c4ccc([nH]4)c(-c4ccc(S(=O)(=O)O)cc4)c4nc(c(-c5ccc(S(=O)(=O)O)cc5)c5ccc2[nH]5)C=C4)C=C3)cc1` [TPPS4], the “photosensitizer fluorescence excited” value [3, 4] was “characteristic fluorescence of TPPS4 is not present”.
In the case of `O.O=C([O-])c1ccccc1-c1c2cc(I)c(=O)c(I)c-2oc2c(I)c([O-])c(I)cc12.[Na+].[Na+]` [erythrosin B], the “photosensitizer fluorescence excited” value ([3]; luminol in DMSO alkalinised by potassium tert.butoxide) is reported as “very strong fluorescence around 580 nm” and the “luminescence around 1270 nm (singlet oxygen)” value ([3]; luminol in DMSO with potassium tert.butoxide, quenched by histidine) is reported as “presence of singlet oxygen”.
For `Nc1cccc2c(=O)[nH][nH]c(=O)c12` [luminol, reference compound], the subcellular localisation [1] was “cytosolic localisation” and the subcellular localisation [2] was “cytosolic localisation”.

— patent US12121581B2, “Method of photodynamic therapy” (OSLO UNIVERSITETSSYKEHUS HF, priority 2018, dated 2024)
